Assay results published in the supplement of paper PMC10338343.
± gives the standard deviation. The entries are a selection whose mix differs from that of the whole data set. Many of these values have a large error.

System: MIWI (PIWIL1) piRISC loaded with L1MC piRNA (30 nt)
Assay: pre-steady-state target cleavage rate (min^-1); MIWI and MILI are mouse PIWI proteins and EfPiwi is from a freshwater sponge; tags in brackets are library labels; higher = faster piRNA-guided slicing of the target
Conditions: guide: L1MC piRNA 5'p-UAACUAAAUACUAUGCAAGCUGUAGGUCCU; auxiliary factor: 500 nM mouse GTSF1
Summary of the method: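 Active affinity-purified piRISC (1 nM) loaded with one synthetic guide was mixed with a transcribed, DNA-blocked target RNA library (0.1 nM), with or without 500 nM GTSF1 partner protein, in HEPES–potassium acetate buffer at 33 °C for 0–8 or 0–960 min. Uncleaved targets were sequenced, normalised to depth and to weakly complementary targets, and pooled across three trials, with k3 capped at 0.0001 min^-1. The pre-steady-state cleavage rate was determined with a burst-and-steady-state fit.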

Row | Sequence | pre-steady-state target cleavage rate
1 | UCCUGGAUGUCGAACCGUAGUAUUUAGUUA | 0.000217 ± 0.017
2 | UCCUGGAUGUCGUUGCAUUGUAUUUAGAUA | 0.000188 ± 0.038
3 | UGGACCAUCAGCUUGCAUAGUAUUUAGUUA | 1.44 ± 0.056
4 | UGGACCUACAGCUUUGCAUAGUAUUUAGUUA | 1.43 ± 0.11

Same assay, conditions: guide: L1MC piRNA 5'p-UAACUAAAUACUAUGCAAGCUGUAGGUCCU; auxiliary factor: none (no GTSF1)

Row | Sequence | pre-steady-state target cleavage rate
5 | UGGACCUACACGUUGCAUAGUAUUUUCAAA | 0.00119 ± 0.0043
6 | UCCACCUACAGCUUGCAUUCAAUUUAGAAA | 0.000286 ± 0.01
7 | AGGACCUACAGCUUGCAUUCAAUUUAGUUA | 0.00106 ± 0.0071
8 | AGGACCUACAGCUUGGAUAGUAUUUUCAAA | 0.00159 ± 0.0045
9 | UCCUGGAUGUCGAACGUUAGUAUUUUCAUA | 0.000105 ± 0.036
10 | UCCACCUACAGCUUGCAUACUAUUUACAAA | 0.00215 ± 0.0033
11 | UCCUCCUACAGCUUGCUUAGUAUUUACAAA | 0.00156 ± 0.0039
12 | UCCACCUACAGCUUGCAUAGUAAUAAGUUA | 0.00174 ± 0.0047
13 | AGGACCUACAGCAACCAUAGUAUUUACAAA | 0.000625 ± 0.012
14 | UCCACCUACAGCUUGCAUGAGUAUUUAGUUA | 0.000708 ± 0.0094
15 | UCCUGGAUGUCGAACCUUAGUAUAUAGUUA | 0.000191 ± 0.023
16 | UCCACCUACAGCUUGCAUACAUAAAUCAAA [g12:g27:cont:t1A] | 0.00063 ± 0.011
17 | UCGACCUACACGAUGCAUAGUAUUUUCAAA | 0.000659 ± 0.01
18 | UCCUGGAUGUCGAACGUAACAAUUUAGUUA | 0.000129 ± 0.035
19 | AGGACCUACAGCUUGCAUACAAUUUAGUAA | 0.00185 ± 0.0049
20 | UCGACCUACAGCUUGCUAUCAUAAAUCAAA [g15:g28:cont:t1A] | 0.000135 ± 0.028
21 | UCGACCUACAGCUUGCUAUGUAUUUACAAA | 0.000612 ± 0.0077
22 | AGGACCUACAGCUUGCAUAGCUAUUUAGUUA | 0.00209 ± 0.0054

Row | Sequence | pre-steady-state target cleavage rate
23 | UGGACCUACAGCUUGCAUAGUUAAAUCAAA [g10:g29:cont:t1A] | 0.00047 ± 0.0089
24 | UGGACCUACAGCUUGCAAUCUAUUUAGAAA | 0.000796 ± 0.0072
25 | UCCUGGAUGUCGAACGUUACUAAUUAGUUA | 0.000217 ± 0.027
26 | UCCACCUACAGGUUCCAUAGUAUUUAGUUA | 0.00109 ± 0.0049
27 | UCCACCUACAGCUUCGUUAGUAUUUACAAA | 0.00069 ± 0.01
28 | UCCACCAACAGCUUGCAUAGUAUUUACAAA | 0.00316 ± 0.0035
29 | UCCACCUACAGCUUGACAUAGUAUUUAGUUA | 0.00235 ± 0.0029
30 | AGGACCUACAGCUUCCAUAGUAUUUAGAUA | 0.0013 ± 0.0057
31 | UCCACCUAGUGCUUGCAUAGUAUUUAGAAA | 0.00172 ± 0.0019
32 | AGGACCUACAGCUUGGUUAGUAUUUUCAAA | 0.000535 ± 0.0098
33 | UGGACCUACAGCUUCCAUAGUAUUUUGUUA | 0.00119 ± 0.0045
34 | AGGACCUACAGCUUCCAUAGUAUUUACUUA | 0.00112 ± 0.0053
35 | UCCACCUACAGCUUGCAAUCUAUUUAGAAA | 0.000287 ± 0.0089
36 | UGGACCUACAGCUUGCUUAGUAUUUUCAAA | 0.00151 ± 0.0031
37 | UCCACCUACAGCUUGCAAUCUAUUUUCAAA | 0.000499 ± 0.013
38 | AGGACCUACAGCUUGCAUAGUAUUAUGUAA | 0.00264 ± 0.0037
39 | UGGACCUACAGCUUCCAUAGUUUUUAGUUA | 0.00169 ± 0.0021
40 | UCGACCUACAGCUUGCAUAGAUAAAUCAAA [g11:g28:cont:t1A] | 0.000287 ± 0.013

In another format: entries from further up.
Row	Sequence	pre-steady-state target cleavage rate
11	UCCUCCUACAGCUUGCUUAGUAUUUACAAA	0.00156 ± 0.0039
12	UCCACCUACAGCUUGCAUAGUAAUAAGUUA	0.00174 ± 0.0047
13	AGGACCUACAGCAACCAUAGUAUUUACAAA	0.000625 ± 0.012
14	UCCACCUACAGCUUGCAUGAGUAUUUAGUUA	0.000708 ± 0.0094
15	UCCUGGAUGUCGAACCUUAGUAUAUAGUUA	0.000191 ± 0.023
16	UCCACCUACAGCUUGCAUACAUAAAUCAAA [g12:g27:cont:t1A]	0.00063 ± 0.011
17	UCGACCUACACGAUGCAUAGUAUUUUCAAA	0.000659 ± 0.01
18	UCCUGGAUGUCGAACGUAACAAUUUAGUUA	0.000129 ± 0.035
19	AGGACCUACAGCUUGCAUACAAUUUAGUAA	0.00185 ± 0.0049
20	UCGACCUACAGCUUGCUAUCAUAAAUCAAA [g15:g28:cont:t1A]	0.000135 ± 0.028
21	UCGACCUACAGCUUGCUAUGUAUUUACAAA	0.000612 ± 0.0077
